Laboratory results: PubChem BioAssay AID901 (National Center for Advancing Translational Sciences (NCATS), 2007)
Where “and” joins values, the source holds several entries; their conditions need not be identical. Equal values may be shown once. This is one part of the list. These are further read-outs of the screen, such as a control signal, another cell line or another target. No call is given for them. Compounds called inactive in the main read-out are mostly missing here. The note in brackets gives the kind of curve behind each potency; many fits are weak.

Assay: qHTS Assay for Identifying the Cell-Membrane Permeable IMPase Inhibitors
Settings: CHO-M1 cells, IP1 accumulation, HTRF TR-FRET ratio; measured here: donor channel 620 nm AC50
In the case of `CC(Oc1ccc(Cl)cc1Cl)C(=O)Nc1ccc(S(=O)(=O)Nc2cnc3ccccc3n2)cc1` (stereo unspecified), the AC50 is reported as 0.1 µM [falling, full curve, poor fit].
In the case of `Cc1ccc(-c2nc3ncccc3o2)cc1NC(=O)c1cccc(OCC(C)C)c1`, the AC50 is reported as 31.6 µM [rising, single point].
In the case of `N#CC(C#N)=Cc1ccc(O)c(O)c1`, the AC50 is reported as 25.1 µM [falling, partial curve, poor fit].
In the case of `CC1(C)CC2(CCO1)NCCN1C(=O)CSC12` (stereo unspecified), the AC50 is reported as 6.31 µM [falling, single point].
With `CC1CCCC(C2(O)C(=O)Nc3ccccc32)C1=O` (stereo unspecified) the AC50 was 5.01 µM [rising, single point].
For `Cc1cccc(Oc2nc3c(C)cccn3c(=O)c2/C=C(\C#N)c2nc3ccccc3s2)c1`, the AC50 was 1.41 µM [falling, full curve, poor fit].
For `COc1cc2c(cc1O)C[C@H]1c3c(cc(OC)c(O)c3-2)CCN1C`, the AC50 was 31.6 µM [falling, partial curve, poor fit].
For `CCN1CCN(C(=O)COc2ccc(S(=O)(=O)N(C)Cc3ccccc3)cc2)CC1`, the AC50 was 0.178 µM [falling, full curve, poor fit].
For `CN(CCc1ccccn1)Cc1ccc(Cl)cc1`, the AC50 was 22.4 µM [rising, single point].
With `Cc1ccc(C(=O)COC(=O)c2cccc(NC(=O)c3ccc(Br)cc3)c2)cc1` the AC50 was 35.5 µM [rising, single point].
With `Cc1ccc2c(c1)CC1(CN2C)C(=O)NC(=O)N(c2cc(C)ccc2C)C1=O` (stereo unspecified) the AC50 was 3.16 µM [rising, single point].
With `CC(N)C(=O)c1ccco1` (stereo unspecified) the AC50 was 0.0126 µM [rising, full curve, poor fit].
With `C[C@H]1CCC[C@@H](O)CCC/C=C/c2cc(O)cc(O)c2C(=O)O1` the AC50 was 31.6 µM [falling, single point].
In the case of `CC1CC2(O)c3nonc3CCC2N1O` (stereo unspecified), the AC50 is reported as 12.6 µM [falling, partial curve, poor fit].
With `CCc1ccc(C(=O)C23CN4CN(CN(C4)C2)C3)cc1` the AC50 was 0.126 µM [rising, single point].
In the case of `COc1ccc(CCNCc2ccc(SC)cc2)cc1`, the AC50 is reported as 12.6 µM [falling, single point].
For `CC(=O)c1ccc2c(c1)C1C(Cl)C(Sc3ccccc3[N+](=O)[O-])CC1C(c1ccccc1)N2` (stereo unspecified), the AC50 was 12.6 µM [falling, partial curve, poor fit].
In the case of `CN1[C@@H]2CC[C@H]1CC(OC(=O)c1cc(Cl)cc(Cl)c1)C2` (stereo partly specified), the AC50 is reported as 0.00158 µM [falling, full curve, poor fit].
With `COc1ccc(N=C2SCCCN2C)cc1` the AC50 was 15.8 µM [rising, single point].
For `CCCCN1CCC(O)(c2ccccc2)C(C(=O)c2ccccc2)C1` (stereo unspecified), the AC50 was 3.16 µM [falling, single point].
In the case of `C[n+]1ccc(-c2ccncc2)cc1`, the AC50 is reported as 0.0251 µM [rising, full curve, poor fit].
In the case of `CCCN1CC(C)C(OC(C)=O)(c2ccccc2)CC1C` (stereo unspecified), the AC50 is reported as 15.8 µM [falling, single point].
In the case of `Cc1ccc2c(c1)CC1(CN2C)C(=O)NC(=O)N(c2cccc(C)c2C)C1=O` (stereo unspecified), the AC50 is reported as 15.8 µM [rising, single point].
For `CC12CN3CC(c4ccccc4)(CN(C1)C31CCCCC1)C2=O`, the AC50 was 2.82 µM [falling, full curve].
With `O=C1NC(=S)N(c2ccc(Cl)cc2)C(=O)/C1=C/N1CCN(C(=O)c2ccco2)CC1` the AC50 was 5.01 µM [rising, partial curve, poor fit].
With `CN1CCN(C(=O)Cc2nc3ccccc3[nH]2)CC1` the AC50 was 0.0251 µM [rising, full curve, poor fit].
For `CCOC(=O)c1c(C)n(CCN2CCN(C)CC2)c2ccc(OC)cc12`, the AC50 was 0.01 µM [rising, full curve, poor fit].
With `Cc1ccc2c(c1)C1CN(C)CCC1N2C(=O)Cn1cnc2c1c(=O)n(C)c(=O)n2C` (stereo unspecified) the AC50 was 5.62 µM [rising, single point].
With `Cc1ccc(Cn2ccc(NC(=O)c3cc(-c4ccco4)on3)n2)cc1` the AC50 was 31.6 µM [falling, single point].
For `COc1cccc(C2=NOC(C(=O)N3CCC4(CC3)OCCO4)C2)c1` (stereo unspecified), the AC50 was 6.31 µM [falling, single point].
With `COc1cccc(OC)c1C1=NCC(=O)Nc2c1oc1ccc(Br)cc21` the AC50 was 35.5 µM [falling, single point].
With `CCOC(=O)c1nc2ccccc2c(=O)n1-c1cccc(C)c1` the AC50 was 12.6 µM [falling, partial curve, poor fit].
With `COCCn1cc(C(=O)N2CCC3(CC2)OCCO3)c2c3ccccc3n(C)c2c1=O` the AC50 was 0.02 µM [falling, full curve, poor fit].
For `Cc1cccc(-n2c(O)c(/C=N/Nc3nc4c(c(=O)n(C)c(=O)n4C)n3C)c(=O)[nH]c2=S)c1`, the AC50 was 0.398 µM [falling, full curve, poor fit].
With `CC(=O)C(C)=O` the AC50 was 0.01 µM [falling, full curve, poor fit].
In the case of `Cc1noc(COc2ccccc2OCC(O)CNC(C)(C)C)n1` (stereo unspecified), the AC50 is reported as 0.631 µM [falling, full curve, poor fit].
In the case of `CN(C)[C@@H]1C(=O)C(C(N)=O)=C(O)[C@@]2(O)C(=O)C3=C(O)c4c(O)cccc4[C@@](C)(O)[C@H]3[C@H](O)[C@@H]12`, the AC50 is reported as 39.8 µM [rising, single point].
In the case of `Nc1c2c(nc3sc4c(c13)CCCC4)CCCCC2`, the AC50 is reported as 0.316 µM [falling, partial curve].
In the case of `O=C(Cn1ncc2c3ccccc3n(Cc3ccccc3)c2c1=O)N1CCC2(CC1)OCCO2`, the AC50 is reported as 0.00398 µM [falling, full curve, poor fit].
With `CCOC(=O)N1CCN(Cc2cn3ccccc3n2)CC1` the AC50 was 0.01 µM [rising, full curve, poor fit].
With `CCN(CC)S(=O)(=O)c1ccc(N=Cc2c(O)n(-c3ccccc3)c(=O)[nH]c2=O)cc1` the AC50 was 6.31 µM [rising, partial curve, poor fit].
In the case of `Cn1c(=O)cc(OCCCC(=O)N2CCC3(CC2)OCCO3)c2ccccc21`, the AC50 is reported as 0.00501 µM [falling, full curve].
In the case of `CN(C)CCCN=Cc1c(O)n(CCc2ccc(F)cc2)c(=O)[nH]c1=O`, the AC50 is reported as 0.00794 µM [falling, full curve, poor fit].
With `N#C/C(=C\c1ccc(O)c(O)c1)C(N)=S` the AC50 was 158 nM [falling, full curve, poor fit] and 12.6 µM [falling, partial curve].
For `CN1CCCC(C(=O)c2ccccc2)C1` (stereo unspecified), the AC50 was 3.16 µM [rising, partial curve].
For `CCOP(=O)(OCC)C(c1ccccc1)N(C)C=O` (stereo unspecified), the AC50 was 3.98 µM [rising, partial curve].
For `Cc1ccc(-n2c(-c3nn(C)c(C)c3Cl)n[nH]c2=S)cc1`, the AC50 was 1.58 µM [falling, partial curve, poor fit].
For `Cc1nc2ncnn2c(C)c1CCC(=O)N1CCC2(CC1)OCCO2`, the AC50 was 3.98 µM [rising, full curve, poor fit].
For `CN1CCN(c2ccc(C=O)cc2)CC1`, the AC50 was 0.501 µM [falling, partial curve].
With `CCOc1ccc(Oc2nc(NCC(C)C)nc(N(C)C)n2)nn1` the AC50 was 11.2 µM [falling, single point].
In the case of `CN(C)C(=O)Oc1ccc[n+](C)c1`, the AC50 is reported as 25.1 µM [rising, single point].
In the case of `Cc1ccc(-n2nnnc2SCC(=O)Nc2sc(C)c(C)c2C#N)cc1C`, the AC50 is reported as 0.02 µM [falling, single point].
In the case of `COc1ccc(OC)c(NC(=O)Cn2cc(C(=O)c3ccccc3F)c3ccccc32)c1`, the AC50 is reported as 0.00562 µM [falling, full curve, poor fit].
With `O=c1[nH]c2ccccc2n1C1CCN(CCCC(c2ccc(F)cc2)c2ccc(F)cc2)CC1` the AC50 was 0.00794 µM [falling, full curve, poor fit].
For `CCOc1ccc(CNC(=O)c2cccc(Nc3nc4ccccc4n4nnnc34)c2)cc1OC`, the AC50 was 17.8 µM [rising, single point].
For `C=CCn1c(O)c(C(CC)=Nc2ccccc2NC(=O)CC)c(=O)[nH]c1=O`, the AC50 was 35.5 µM [rising, single point].
With `NC[C@H](CS(=O)(=O)O)c1ccc(Cl)cc1` the AC50 was 12.6 µM [falling, partial curve, poor fit].
With `COCCN(CCOC)S(=O)(=O)c1ccc(C(=O)Nc2sc3c(c2C(N)=O)CCCC3)cc1` the AC50 was 0.178 µM [falling, full curve, poor fit].
In the case of `C=CCn1c(O)c(C(CC)=NCCC2=CCCCC2)c(=O)[nH]c1=O`, the AC50 is reported as 1.58 µM [falling, partial curve, poor fit].
For `CCn1nc(-c2cccs2)nc2c(=O)n(C)c(=O)nc1-2`, the AC50 was 20 µM [falling, single point].
With `COc1cc2c(cc1O)-c1c(O)c(OC)cc3c1[C@H](C2)N(C)CC3` the AC50 was 15.8 µM [falling, partial curve, poor fit].
In the case of `CCOC(=O)C1=C(N)Oc2cc(C)oc(=O)c2C12C(=O)N1c3c(cccc32)C(C)=CC1(C)C` (stereo unspecified), the AC50 is reported as 10 µM [falling, partial curve, poor fit].
For `CC1=C(O)C(=O)[C@H]2O[C@@H]2C1=O`, the AC50 was 10 µM [falling, full curve].
With `Fc1ccc2c(c1)nnn2C1CCN(Cc2nnnn2CCc2ccccc2)CC1` the AC50 was 1.58 µM [rising, partial curve].
For `N[C@H](CP(=O)(O)O)C(=O)O`, the AC50 was 0.2 µM [falling, partial curve, poor fit].
With `CCOc1ccc(CC2C(=O)NC(=O)N(c3ccc(CC)cc3)C2=O)cc1` (stereo unspecified) the AC50 was 0.501 µM [falling, full curve, poor fit].
